# In the supplement of paper PMC8975748:
# Structures can show the parent of a compound that is named as a salt. ± gives the standard deviation of the averaged measurements. This is one part of the list. Values are raw readings; no control value is given beside them.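 The yeast community starts from one strain carrying four plasmids, each with an amino-acid or uracil synthesis gene and a fluorescent protein. Random plasmid loss creates mixed prototroph and auxotroph subpopulations. Cells were fixed and counted by automated confocal fluorescence imaging, and DMSO-treated wells served as the vehicle reference.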
# Test system: Saccharomyces cerevisiae BY4741 SeMeCo community
# Test: imaged cell count per well (cells); higher = more cells
# Settings: 10 µM; 24 h; SM minimal medium
# Experimental: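 Same SeMeCo high-content imaging drug screen: Selleck FDA-approved drugs at 10 µM, 24 h in SM medium, 384-well plates, 3 replicates.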
row,Structure (SMILES),imaged cell count per well
1,CCCc1nn(C)c2c(=O)[nH]c(-c3cc(S(=O)(=O)N4CCN(C)CC4)ccc3OCC)nc12 [Sildenafil Mesylate],27700 ± 7300
2,O=c1[nH]c2ccccc2n1CCN1CCN(c2cccc(C(F)(F)F)c2)CC1 [Flibanserin],30300 ± 680
3,C[C@]12CCC(=O)C=C1[C@@H]1C[C@@H]1[C@H]1[C@@H]3[C@@H]4C[C@@H]4[C@@]4(CCC(=O)O4)[C@@]3(C)CC[C@@H]12 [Drospirenone],20000 ± 2500
4,NC(=O)c1cnccn1 [Pyrazinamide],20200 ± 8400
